This assay addresses histone H3 N-terminal tail peptide (aa 1-21), unmodified, C-terminal biotin (UniProt P68431). The assay can be described thus: affinity purification with mass spectrometry; biotinylated H3 1-21 peptide immobilised on streptavidin agarose beads, 2 mg HeLa nuclear extract, 3 h at 4°C, wash with 250 mM KCl; Coomassie-stained bands cut out and identified by mass spectrometry; only the target purified.

Results are given in words; binding and its absence hold for the method and conditions named. In cells and extracts the contact can be indirect. These calls come from enrichment with a bait or labelling near it, and not all partners need be listed. A no says only that the protein was not detected with the bait.

With “CoREST (endogenous, HeLa) (from UniProt Q9UKL0 1-485)”, the binding entry is “no binding”.

For the origin of these results see article PMC3562248.
